# Library screen at single concentrations

The values are deposited in ChEMBL (CHEMBL3988442, “University of Dundee, Small-Polar-MMV Screening Library” (2021)).

Mtb cholesterol medium: 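Growth of Mycobacterium tuberculosis over 4 days (cholesterol / DPPC medium with tyloxapol); the read-out is not stated. Tested at 50 µM. The record gives no direction; compounds that gave an IC50 in retests scored well above the rest, so higher reads as more growth inhibition. Size under these conditions: about 69,000 compounds, about 370 of them at 50% or above in at least one test.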
Mtb glucose medium: 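Phenotypic screen: M. tuberculosis growth, glucose 7H9 medium, 3 days; the read-out is not stated. Concentration: 50 µM. Direction is inferred from retests: higher values go with more growth inhibition. Size under these conditions: about 69,000 compounds, about 760 of them at 50% or above in at least one test.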

Results are given as percent effect. The controls that fix the scale are not given in the record; negative values are as filed. Compounds were drawn at random from those tested, without regard to their results. Two or more numbers in one place are separate tests of the same structure; such repeats can differ widely.

| Compound | Mtb cholesterol medium | Mtb glucose medium |
|---|---|---|
| `Cc1csc(N2CCN(Cc3cscn3)CC2C)n1` (configuration not stated) | 12.51% | -20.48% |
| `OCc1ccc(CN(CCCn2ccnc2)Cc2ccncc2)o1` | 8.256% | 6.664% |
| `COC(=O)CN(Cc1ccccc1C)C(=O)COCC1CC1` | 3.159% | 2.078% |
| `CC(C)(C)n1ncc2c(=O)n(CC(=O)NCc3ccccc3)cnc21` | -31.14% | 0.4247% & -24.31% |
| `[H][C@]12CCCC[C@]1([H])N(C(=O)N1CCOCC1)CC[C@@]2(O)c1ccccc1` | 0.3516% | 29.1% |
| `Cc1cccc(C)c1NC(=O)CN(C)C(C)c1nc(C(C)(C)C)no1` (configuration not stated) | -21.08% | -14.53% |
| `COCc1ncn2c1CN(S(=O)(=O)c1cccc(F)c1)CC2` | -29.09% | -6.74% & -6.694% |
| `Cc1nc(CNC(=O)NC(C)c2ccc3c(c2)OCCCO3)cs1` (configuration not stated) | -12.7% | -14.03% |
| `O=C(NC1CCS(=O)(=O)C1)c1cc(Sc2ncccn2)ccn1` (configuration not stated) | -10.03% | -7.293% & -12.95% |
| `CN1CCCC(c2cccc(CCC(=O)NCC3(C)COC3)n2)C1` (configuration not stated) | 6.442% | 16.99% |
| `COc1ccc2c(c1)C1(CCN(Cc3cnn(C)c3)CC1)N(C)CC2.O=C(O)C(F)(F)F` | -9.426% | 4.153% & 5.222% |
| `COc1ccccc1NC(=O)CC(C)NCCc1sc(C)nc1C` (configuration not stated) | -4.204% | -3.372% & 14.66% |
| `Cc1ncc(S(C)(=O)=O)c(N2Cc3ccccc3C2)n1` | -13.08% & -7.716% | -38.45% & -11.25% |
| `Cc1nc(C)n(CCCNc2ncnc(C)c2C)n1` | -26.14% | -34.39% |
| `Cn1cnnc1CNC(=O)C1CCCN(Cc2ccccc2)C1` (configuration not stated) | -11.47% | -4.238% & -28.34% |
| `CCNC(=O)N1CCC(n2ccc(C(F)(F)F)n2)CC1` | -10.37% | -0.5876% |
| `CCOc1cccc(C(=O)Nc2ccn(CC)n2)c1` | 19.95% | 27.43% |
| `Cc1ccc(CN2C(=O)CCC2C(=O)Nc2cnn(C)c2)o1` (configuration not stated) | 18.83% | -1.739% & -10.12% |
| `CCN1CCN(C2CCN(Cc3cc(C)on3)CC2)C1=O` | 11.25% | 25.11% |
| `Cc1nc(-c2c(C)noc2C)cc(C2CCN(CC(=O)N(C)C)CC2)n1` | -4.284% & -6.979% | -26.6% |
| `CC(C)n1ccnc1C1CCN(C(=O)C2COc3ccccc3O2)CC1` (configuration not stated) | 1.774% | 6.234% |
| `CN1CC(C(=O)NCc2ccc(OCc3cccnc3)cc2)CC1=O` (configuration not stated) | -1.29% | -4.64% & -18.12% |
| `CNc1ncc(CN(C)C(=O)c2ccc(C3CCCO3)s2)cn1` (configuration not stated) | -18.53% | -22.29% |
| `O=C(Nc1nncs1)N(Cc1cccc(O)c1)C1CC1` | 7.811% | 23.13% |
| `CN(C)CCCNC(=O)c1ccc(Cl)cc1Cl` | -1.236% | -5.504% |
| `CC(C)n1nc(Cn2cccc2)c2c1CN(C1CCOCC1)C2.O=C(O)C(F)(F)F` | -12.79% | -8.834% |
| `Cc1noc(C)c1CN1CCn2nc(CCC(=O)N3CCCC3)cc2C1` | -37.2% | -23.81% |
| `COc1c(CNC2CCc3ccccc32)c(C(C)C)nn1C` (configuration not stated) | -5.233% | -4.47% & -31.54% |
| `COC(=O)CNC(=O)CSCc1nc(O)c2cc(C(C)C)sc2n1` | 7.223% | -17.46% |
| `CCN1CCN(C(=O)C2CCOC2)c2ccccc21` (configuration not stated) | -1.356% | -16.02% |
| `CC1CCCCN1C1CN(C(=O)c2sccc2S(N)(=O)=O)C1` (configuration not stated) | -3.747% | 3.43% |
| `Cc1nc(CNC(=O)NC2CCN(c3ncccn3)CC2)cs1` | 18.39% | -11.54% |
| `Cc1nsc(NC(=O)NC2(CN3CCCCC3)CCCCC2)n1` | -8.617% | -22.19% |
| `CC(C)C[C@H](NC(=O)N1CCC(Cc2ccccc2)CC1)C(=O)O` | 1.754% | -26.86% |
| `CC(C)(C)OC(=O)NCC1CCCCN1Cc1cccnc1` (configuration not stated) | 12.28% | 7.689% & 1.231% |
| `N#Cc1ccnc(N2CCN(CC(O)c3cc(F)ccc3F)CC2)c1` (configuration not stated) | 1.55% | 14.79% |
| `CC1c2ncc(Cn3cncn3)n2CCN1CC1CCOCC1.O=C(O)C(F)(F)F` (configuration not stated) | -10.33% | -8.028% |
| `COc1cc(OC)cc(C2(O)CCN(Cc3nc(C)c(C)o3)CC2)c1` | -16.25% | 9.041% |
| `CCOC(=O)N1CCN(C(=O)c2cc(-c3ccc(C)cc3)on2)CC1` | 8.485% | 39.05% |
| `COCCN1CCC1c1cc(NC2CCCC2)nc(C)n1` (configuration not stated) | -1.746% | 40% |
| `Cn1c(=O)oc2cc(Nc3ncc(C#N)cc3Cl)ccc21` | 0.6553% | 1.349% |
| `CC(C)(C)c1nc(CNc2ccccc2SCCC(N)=O)cs1` | 0.8215% | 3.967% |
| `O=C(CC(F)(F)F)N1CCCC(c2nccn2Cc2ccncc2)C1` (configuration not stated) | -0.4157% & -8.355% | 19.17% |
| `COc1cccn(CC(=O)N(C)CCSC)c1=O` | -9.609% | -26.44% |
| `O=C(O)C(F)(F)F.[H][C@@]12CCN(c3ncc(F)cn3)[C@]1([H])CC[C@@H](C(=O)NCCOC)O2` | 6.188% | 18.05% & -5.819% |
| `NC(=O)Cn1cc(NC(=O)NCCN2CCc3ccccc3C2)cn1` | -2.383% | -2.067% |
| `CCc1cc(CN(C)C(=O)c2cnc3c(c2)nc(N)n3CC)on1` | -2.513% | 13.94% |
| `COc1ccccc1OCc1cc(C(=O)N2CCCCCC2CO)n[nH]1` (configuration not stated) | -23.37% | -12.52% |
| `CC(C)C[C@H](NCc1cc(O)c2cccc(F)c2n1)C(N)=O` | -2.978% | 16.12% |
| `[H][C@]12CCN(C(=O)c3ccoc3)[C@@]1([H])CC[C@H](COCC1CCOCC1)O2` | -24.43% | -20.95% |
| `O=C(NCCNC(=O)C1CC1)c1cnc(-c2ccccc2)nc1` | 4.45% | 7.623% & 1.584% |

Once more, the final 6:

| Compound | Mtb cholesterol medium | Mtb glucose medium |
|---|---|---|
| `NC(=O)Cn1cc(NC(=O)NCCN2CCc3ccccc3C2)cn1` | -2.383% | -2.067% |
| `CCc1cc(CN(C)C(=O)c2cnc3c(c2)nc(N)n3CC)on1` | -2.513% | 13.94% |
| `COc1ccccc1OCc1cc(C(=O)N2CCCCCC2CO)n[nH]1` (configuration not stated) | -23.37% | -12.52% |
| `CC(C)C[C@H](NCc1cc(O)c2cccc(F)c2n1)C(N)=O` | -2.978% | 16.12% |
| `[H][C@]12CCN(C(=O)c3ccoc3)[C@@]1([H])CC[C@H](COCC1CCOCC1)O2` | -24.43% | -20.95% |
| `O=C(NCCNC(=O)C1CC1)c1cnc(-c2ccccc2)nc1` | 4.45% | 7.623% & 1.584% |